# From article doi:10.1101/2024.04.19.590210
# Protein sequences, listed by entry. Tags and fused reporters are not part of them.
# UniProt Q39057: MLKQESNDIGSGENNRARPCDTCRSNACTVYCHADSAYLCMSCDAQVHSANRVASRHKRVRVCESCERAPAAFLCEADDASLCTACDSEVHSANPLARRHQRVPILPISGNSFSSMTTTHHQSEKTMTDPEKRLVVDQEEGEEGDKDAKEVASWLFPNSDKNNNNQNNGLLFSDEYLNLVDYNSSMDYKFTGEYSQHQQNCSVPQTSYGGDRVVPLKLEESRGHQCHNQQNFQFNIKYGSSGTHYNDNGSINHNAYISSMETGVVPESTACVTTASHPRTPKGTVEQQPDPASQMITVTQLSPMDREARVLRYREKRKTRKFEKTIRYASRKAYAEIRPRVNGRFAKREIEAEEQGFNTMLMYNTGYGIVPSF
# UniProt Q9SXZ2: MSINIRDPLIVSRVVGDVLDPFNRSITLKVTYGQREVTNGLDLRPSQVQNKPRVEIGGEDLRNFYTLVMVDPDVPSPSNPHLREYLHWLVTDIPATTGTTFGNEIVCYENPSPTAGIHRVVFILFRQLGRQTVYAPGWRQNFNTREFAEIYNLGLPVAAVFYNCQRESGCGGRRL
# UniProt Q9C7E8: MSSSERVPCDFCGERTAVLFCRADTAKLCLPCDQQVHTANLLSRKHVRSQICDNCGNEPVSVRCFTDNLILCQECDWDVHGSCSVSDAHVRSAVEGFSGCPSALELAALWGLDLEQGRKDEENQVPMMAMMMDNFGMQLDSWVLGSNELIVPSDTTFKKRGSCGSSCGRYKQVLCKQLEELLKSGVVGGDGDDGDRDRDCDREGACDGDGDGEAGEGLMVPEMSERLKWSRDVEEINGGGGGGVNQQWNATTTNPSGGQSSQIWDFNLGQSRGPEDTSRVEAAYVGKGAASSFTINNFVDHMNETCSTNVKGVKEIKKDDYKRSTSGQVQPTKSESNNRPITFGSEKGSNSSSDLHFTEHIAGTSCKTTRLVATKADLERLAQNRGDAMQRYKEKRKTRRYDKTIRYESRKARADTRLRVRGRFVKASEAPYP
# Results are given in words; binding and its absence hold for the method and conditions named. For some of these results: In cells and extracts the contact can be indirect. Some entries that bind do so weakly or less than the wild type.
# Experiments:
# [1] = target: cYFP-CO (Arabidopsis thaliana) (UniProt Q39057); assay: split reporter
# [2] = target: FT, yeast two-hybrid fusion (Arabidopsis thaliana) (UniProt Q9SXZ2); assay: two-hybrid
# [3] = target: CO fused to the GAL4 binding domain (Arabidopsis thaliana) (UniProt Q39057); assay: two-hybrid
Substance,binding [1],further results
FT in pCL112 (nYFP fusion) (from UniProt Q9SXZ2 1-175),no binding,
"BBX13, yeast two-hybrid fusion tested against FT (Figure S4) (from UniProt Q9C7E8 1-433)",,binding [2]: no binding
nYFP-BBX13 (from UniProt Q9C7E8 1-433),binds,
BBX13 fused to the GAL4 activation domain (from UniProt Q9C7E8 1-433),,binding [3]: binds
